The record followed here is PMC4164784, “4E-BPs require non-canonical 4E-binding motifs and a lateral surface of eIF4E to repress translation” (Nature Communications, 2014).

Amino acid sequences for entries named in this document (tags omitted).
UniProt O61380: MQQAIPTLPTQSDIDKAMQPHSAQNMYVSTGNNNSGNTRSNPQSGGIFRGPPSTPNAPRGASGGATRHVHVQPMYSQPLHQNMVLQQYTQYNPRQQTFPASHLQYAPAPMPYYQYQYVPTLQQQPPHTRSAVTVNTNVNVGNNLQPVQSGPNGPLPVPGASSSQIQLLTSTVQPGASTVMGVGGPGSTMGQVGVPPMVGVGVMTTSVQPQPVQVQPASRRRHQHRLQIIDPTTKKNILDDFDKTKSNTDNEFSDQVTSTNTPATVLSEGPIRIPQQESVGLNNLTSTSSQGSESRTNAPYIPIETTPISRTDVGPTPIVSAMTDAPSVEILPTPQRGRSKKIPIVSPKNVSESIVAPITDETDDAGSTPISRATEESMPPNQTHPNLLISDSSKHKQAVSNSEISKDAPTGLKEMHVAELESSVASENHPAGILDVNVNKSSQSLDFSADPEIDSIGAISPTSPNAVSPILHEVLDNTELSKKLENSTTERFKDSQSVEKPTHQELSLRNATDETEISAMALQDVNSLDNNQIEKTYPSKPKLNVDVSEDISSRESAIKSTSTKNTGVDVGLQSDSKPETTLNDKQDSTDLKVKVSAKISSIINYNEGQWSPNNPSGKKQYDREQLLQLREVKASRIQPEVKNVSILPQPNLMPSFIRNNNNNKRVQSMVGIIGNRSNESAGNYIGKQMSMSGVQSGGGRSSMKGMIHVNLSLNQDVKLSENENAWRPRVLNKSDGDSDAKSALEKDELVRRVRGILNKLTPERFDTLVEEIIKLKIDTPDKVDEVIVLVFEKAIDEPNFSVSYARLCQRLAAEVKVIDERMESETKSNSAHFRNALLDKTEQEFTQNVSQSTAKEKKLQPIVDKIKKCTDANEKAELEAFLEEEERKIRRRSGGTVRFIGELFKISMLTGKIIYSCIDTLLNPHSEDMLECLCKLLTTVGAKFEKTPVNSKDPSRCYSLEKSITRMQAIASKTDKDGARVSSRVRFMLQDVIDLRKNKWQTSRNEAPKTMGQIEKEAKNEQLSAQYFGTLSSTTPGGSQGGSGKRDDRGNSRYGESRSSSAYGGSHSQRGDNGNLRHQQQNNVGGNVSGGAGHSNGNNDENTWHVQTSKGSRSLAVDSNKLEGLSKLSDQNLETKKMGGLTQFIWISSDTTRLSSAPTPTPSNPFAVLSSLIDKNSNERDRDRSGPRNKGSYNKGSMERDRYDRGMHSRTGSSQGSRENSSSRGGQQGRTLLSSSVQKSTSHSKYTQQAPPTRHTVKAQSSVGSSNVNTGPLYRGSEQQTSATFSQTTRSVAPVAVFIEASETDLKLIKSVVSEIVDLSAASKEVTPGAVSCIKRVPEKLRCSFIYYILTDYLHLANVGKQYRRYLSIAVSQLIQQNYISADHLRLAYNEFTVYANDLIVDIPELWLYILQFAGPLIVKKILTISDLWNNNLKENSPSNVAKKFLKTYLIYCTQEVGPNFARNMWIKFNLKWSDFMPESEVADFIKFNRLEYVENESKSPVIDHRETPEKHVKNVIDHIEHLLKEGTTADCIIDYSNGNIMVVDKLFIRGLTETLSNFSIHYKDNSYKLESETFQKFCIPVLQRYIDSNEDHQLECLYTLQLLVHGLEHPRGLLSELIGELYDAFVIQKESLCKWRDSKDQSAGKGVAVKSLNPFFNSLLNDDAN

The target of experiment [1] is T1, HA-eIF4E (WT) (Drosophila melanogaster) (UniProt P48598).
T1 sequence: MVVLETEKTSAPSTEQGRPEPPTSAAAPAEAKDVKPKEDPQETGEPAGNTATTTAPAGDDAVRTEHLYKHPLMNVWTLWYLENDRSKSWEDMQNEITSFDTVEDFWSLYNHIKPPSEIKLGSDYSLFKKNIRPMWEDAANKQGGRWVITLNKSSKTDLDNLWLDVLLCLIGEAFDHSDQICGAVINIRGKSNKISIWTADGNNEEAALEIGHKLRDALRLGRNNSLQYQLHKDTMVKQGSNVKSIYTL
Kind of experiment: co-IP; S2 cell lysates; HA-eIF4E (WT or mutated) with GFP-tagged full-length 4E-BPs and endogenous eIF4G; western blot. A general note: In western blotting, separated proteins are transferred to a membrane and probed.

Experiment [2] has as its target T2, HA-eIF4E II-AA (Drosophila melanogaster) (UniProt P48598).
T2 sequence: T1 sequence with I96A, I112A
The experiment is described as above.

Substitutions are numbered along the chain they refer to. No constants are given. Whether binding was seen depends on the method and setting. In cells and extracts the contact can be indirect. Some results given as binding are weak or reduced against the parent protein; the word gives no strength. Sequences can lack the tags named with a protein.

In the case of “endogenous eIF4G (S2 cells) (from UniProt O61380 1-1666)”, the binding result in experiment [1] and in experiment [2] was “binds” in each case.
